From PMC12511343, “Structural insights into Cir-mediated killing by the antimicrobial protein Microcin V” (Communications Biology, 2025)

Molecular target: T1, 4-Met substituted E. coli Cir (colicin Ia receptor), the paper's wildtype (WT) Cir (E. coli) (UniProt P17315)
T1 sequence: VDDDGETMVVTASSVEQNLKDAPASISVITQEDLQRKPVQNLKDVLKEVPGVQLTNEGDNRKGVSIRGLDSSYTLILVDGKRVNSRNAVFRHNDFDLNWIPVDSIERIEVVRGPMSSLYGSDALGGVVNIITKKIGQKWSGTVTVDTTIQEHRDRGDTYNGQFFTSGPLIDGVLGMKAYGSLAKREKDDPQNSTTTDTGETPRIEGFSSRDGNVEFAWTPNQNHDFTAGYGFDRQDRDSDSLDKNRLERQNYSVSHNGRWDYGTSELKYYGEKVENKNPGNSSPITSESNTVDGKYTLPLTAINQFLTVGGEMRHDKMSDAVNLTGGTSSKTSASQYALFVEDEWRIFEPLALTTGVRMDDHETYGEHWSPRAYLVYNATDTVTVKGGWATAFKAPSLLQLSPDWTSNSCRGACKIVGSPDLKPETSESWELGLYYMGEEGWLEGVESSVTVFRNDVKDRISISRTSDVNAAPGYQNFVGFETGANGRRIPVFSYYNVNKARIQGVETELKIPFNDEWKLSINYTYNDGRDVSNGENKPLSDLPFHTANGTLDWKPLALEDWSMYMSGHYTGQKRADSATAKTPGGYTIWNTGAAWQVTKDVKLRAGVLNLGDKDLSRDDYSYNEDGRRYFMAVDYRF
Test: SEC; refolded Colicin Ia R Domain added at four-fold excess to Cir in NAPol, 30 min at 4 C, complex purified on Superdex 200 Increase 10/300 GL in PBS pH 7.5, peak fractions analysed by SDS-PAGE; both purified

receptor binding domain (R Domain) of Colicin Ia (domain or fragment)
binding: binds

No constants are given. Whether binding was seen depends on the method and setting. Binding calls can cover weak binding; strength is not graded here.
